From patent US8263643B2, “Polyphenol compounds with modulating neurotransmitter release” (Sungkyunkwan University Foundation for Corporate …, priority 2007, dated 2012)
At least one structure is not confirmed: it was looked up by name or label, or the drawing left a doubt.

Sequences of proteins named here, by UniProt entry; tags and fusion partners are left off. Residues count along the entry.
UniProt P60879, whole entry: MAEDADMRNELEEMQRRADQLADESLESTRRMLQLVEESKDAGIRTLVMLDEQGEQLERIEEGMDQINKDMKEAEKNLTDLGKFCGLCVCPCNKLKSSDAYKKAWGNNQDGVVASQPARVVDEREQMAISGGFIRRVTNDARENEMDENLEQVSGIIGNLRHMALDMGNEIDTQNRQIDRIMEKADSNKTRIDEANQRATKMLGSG
UniProt P63045, 2-94 limits assumed: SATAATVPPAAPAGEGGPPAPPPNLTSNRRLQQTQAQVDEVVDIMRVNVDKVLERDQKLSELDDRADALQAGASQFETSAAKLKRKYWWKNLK
UniProt P63045, whole entry: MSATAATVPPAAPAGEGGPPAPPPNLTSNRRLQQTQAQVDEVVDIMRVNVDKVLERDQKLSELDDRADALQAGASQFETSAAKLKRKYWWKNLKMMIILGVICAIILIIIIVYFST
UniProt Q16623, 192-254 limits assumed: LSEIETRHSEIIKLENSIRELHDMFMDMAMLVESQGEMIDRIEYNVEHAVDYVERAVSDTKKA
UniProt Q16623, whole entry: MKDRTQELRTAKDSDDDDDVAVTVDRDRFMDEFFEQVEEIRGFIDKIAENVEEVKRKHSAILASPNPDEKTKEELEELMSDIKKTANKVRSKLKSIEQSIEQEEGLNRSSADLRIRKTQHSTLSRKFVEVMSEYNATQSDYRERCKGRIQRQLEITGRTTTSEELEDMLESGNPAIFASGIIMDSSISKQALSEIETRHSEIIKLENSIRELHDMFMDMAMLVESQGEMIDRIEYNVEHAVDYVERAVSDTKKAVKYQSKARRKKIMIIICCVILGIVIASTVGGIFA

Tests used:
[1] = target: T1, SNARE complex (SNAP25, SynH3, Vps) (UniProt P60879+P63045+Q16623); assay: SDS-PAGE analysis of SNARE complex formation; assay type: biochemical; details: for Inhibition of SNARE complex formation (in words): FIG. 2, concentration series; for Ratio for inhibition by 50% (IR50), SNARE complex formation: molar concentration ratio phenolic compound:SNAP-25, average of at least three measurements
T1 construct: SynH3 (AF217197); Vps (NM012663); made in house; host or cells: E. coli (Codon (+) RIL, Novagen)
Method: A SNARE complex is strong enough so as not to be untwisted by SDS. On the basis of such a property, a SDS-PAGE analysis was performed in order to determine the formation of a SNARE complex. Polyphenol compounds used in the present Example were purchased from Sigma-Aldrich, Wako Chemical, and Extrasynthese.
In order to produce SNARE proteins, SNARE proteins, such as, SNAP25 (NM011428), syntaxin 1A (AF217197), VAMP2 (NM012663), SynH3 (AF217197), and Vps (NM012663), were purified in biologically transformed E. coli (Codon (+) RIL, Novagen).
Then, the materials were quickly mixed by a vortex, and were reacted at room temperature for 30 minutes. […]

[2] = target: T2, membrane fusion caused by SNARE (SNAP25, syntaxin 1A, VAMP2) (UniProt P60879+P63045+Q16623); assay: Membrane fusion assay with SNARE-reconstituted liposomes (fluorescence); assay type: biochemical; details: molar concentration ratio phenolic compound:SNAP-25; average of at least three measurements
T2 construct: made in house; host or cells: E. coli (Codon (+) RIL, Novagen)
Method: In order to produce SNARE proteins, SNARE proteins, such as SNAP25 (NM011428), syntaxin 1A (AF217197), and VAMP2 (NM012663), were purified in biologically transformed E. coli (Codon (+) RIL, Novagen).
In order to prepare liposome (fine membrane) marked with a fluorescent substance, POPC (62 mol %), DOPS (35 mol %), NBD-PS (1.5 mol %) and a fluorescent substance Rhodamin-PE (1.5 mol %) were mixed to obtain 10 mM of liposome (v-vesicle). Also, in order to prepare a liposome not marked with a fluorescent substance, DOPS and POPC were mixed in a molar concentration ratio of 35:65 to obtain 50 mM of liposome (t-vesicle). In order to prepare a complex of the purified SNAP25 and syntaxin 1a, the SNAP25 and the syntaxin 1a were mixed in a molar concentration ratio of 1:1, and then were reacted at room temperature for 1 hour. Then, the resultant mixture and the liposome not marked with a fluorescent substance were mixed in a molar ratio of 100:1. The VAMP2 and the liposome marked with a fluorescent substance were mixed in a molar ratio of 50:1. Then, each of the two kinds of liposomes was dialyzed by using 10 kDa dialyzing membrane through agitation at 4° C. for 24 hours, and the liposomes were mixed in a ratio of 3:7 (v-vesicle t-visicle). Next, fluorescence was measured by using a fluorometer (SpectraMax M2 manufactured by Molecular Device). […]

PC12 cell = assay: Inhibition of [3H]-norepinephrine release from PC12 cells; assay type: cell-based; details: normal PC12 cells, FIG. 4
Method: PC12 cells were cultured in a Ham's F12K medium where 10% […], 5% fetal bovine serum, and antibiotics were added in a collagen-coated plate (60 mm dish). In subculture, after sucking of the medium, 2 ml of PBS was added and cells were separated from a dish wall through pipetting. Then, centrifugation with 1,000×g for 5 minutes was carried out to obtain cells. A new medium was introduced, and a cell pellet was dispersed through pipetting and was loaded onto a new culture plate. And culture was carried out at 37° C. in a culture medium providing 5% CO2 gas. [^3H]-norepinephrine used for the experiment was purchased from Amersham. After sucking of the medium in the plate of PC12 cells, PBS was added and cells were separated from a plate wall. Then, the number of cells was measured by a hemacytometer, and the cells were dispersedly inoculated into a new medium at a concentration of 2×10^5 cell/ml. After 24 hours, a buffer solution ([^3H]—NE, 1.5 μCi/ml) for assay of norepinephrine was added, and then the cells were induced in a carbon dioxide incubator for 90 minutes. After the reaction, the buffer solution was removed and the cells were washed three times with PBS. Then, a new medium and each polyphenol compound were loaded and a reaction was performed for 30 minute. […]

## Oc1cc(O)c2cc(O)c(-c3cc(O)c(O)c(O)c3)[o+]c2c1 [Delphinidin]
[1]
  Inhibition of SNARE complex formation (in words): inhibit the formation of a SNARE complex by 50% at a low concentration
  Ratio for inhibition by 50% (IR50), SNARE complex formation: 12.2
[2]
  Ratio for inhibition by 50% (IR50), membrane fusion: 0.86
PC12 cell
  Norepinephrine release inhibiting effect (in words): relatively high norepinephrine release inhibiting effects

## Oc1cc(O)c2cc(O)c(-c3ccc(O)c(O)c3)[o+]c2c1 [Cyanidin]
[1]
  Inhibition of SNARE complex formation (in words): inhibit the formation of a SNARE complex by 50% at a low concentration
  Ratio for inhibition by 50% (IR50), SNARE complex formation: 22.3
[2]
  Ratio for inhibition by 50% (IR50), membrane fusion: 0.80
